Test [1] addresses XPO1 (intron 15 mScarlet tag, HAP1) (UniProt O14980). As to the kind of experiment: XPO1 fluorescence intensity change vs DMSO (log2 fold change); higher = more XPO1 protein. As to conditions: 6 h.
In test [2] the target is BRD4 (intron 10 mScarlet tag, HAP1) (UniProt O60885). As to the kind of experiment: BRD4 median nuclear fluorescence intensity change vs DMSO (log2 fold change); higher = more BRD4 protein. The following applies: 6 h.

Protein sequences, listed by entry. Tags and fused reporters are not part of them.
UniProt O14980, whole entry: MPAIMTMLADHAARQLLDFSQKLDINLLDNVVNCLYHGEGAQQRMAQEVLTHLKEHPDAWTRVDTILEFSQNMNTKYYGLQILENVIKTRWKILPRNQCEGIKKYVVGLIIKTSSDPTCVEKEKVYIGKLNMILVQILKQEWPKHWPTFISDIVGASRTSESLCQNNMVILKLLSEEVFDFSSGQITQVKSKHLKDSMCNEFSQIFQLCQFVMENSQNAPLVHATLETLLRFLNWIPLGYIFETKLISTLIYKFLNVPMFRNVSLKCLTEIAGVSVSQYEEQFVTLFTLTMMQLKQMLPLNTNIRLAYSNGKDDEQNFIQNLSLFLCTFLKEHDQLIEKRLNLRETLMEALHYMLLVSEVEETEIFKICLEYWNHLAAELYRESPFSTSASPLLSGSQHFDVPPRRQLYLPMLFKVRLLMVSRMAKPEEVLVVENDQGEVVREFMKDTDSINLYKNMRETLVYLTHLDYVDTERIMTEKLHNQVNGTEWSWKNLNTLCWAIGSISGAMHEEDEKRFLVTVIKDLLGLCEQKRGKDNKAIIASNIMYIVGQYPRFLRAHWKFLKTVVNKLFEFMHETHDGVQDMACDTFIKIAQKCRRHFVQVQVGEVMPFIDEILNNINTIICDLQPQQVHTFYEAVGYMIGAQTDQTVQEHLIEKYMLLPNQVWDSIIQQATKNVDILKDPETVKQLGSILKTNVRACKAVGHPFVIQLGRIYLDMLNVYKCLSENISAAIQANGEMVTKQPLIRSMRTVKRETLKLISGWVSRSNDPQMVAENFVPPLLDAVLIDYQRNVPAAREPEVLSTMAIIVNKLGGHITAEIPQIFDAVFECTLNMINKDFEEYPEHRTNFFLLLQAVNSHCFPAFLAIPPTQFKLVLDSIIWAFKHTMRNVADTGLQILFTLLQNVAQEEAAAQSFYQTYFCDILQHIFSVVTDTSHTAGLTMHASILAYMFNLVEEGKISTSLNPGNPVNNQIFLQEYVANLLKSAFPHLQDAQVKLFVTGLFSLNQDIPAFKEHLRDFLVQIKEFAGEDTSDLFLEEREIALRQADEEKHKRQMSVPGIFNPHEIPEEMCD

Each structure is given as a SMILES string. This is one part of the list. Single values are uncertain, as repeats are few or missing.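 Test system: a mixed pool of 41 HAP1 clones in which 61 cancer-associated proteins carry fluorescent tags inserted into introns, and each clone is identified from its image pattern. Read-outs are compared with DMSO-treated control wells. The BRD4 degrader dBET6 served as the positive control.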

Regarding `Cc1cccc(C)c1OCC(O)CNc1ncnc2sccc12` (stereo not drawn) (10 µM), the “XPO1 fluorescence intensity change (log2)” value in test [1] is -0.16. The “BRD4 median nuclear fluorescence intensity change (log2)” value in test [2] is -0.044.
The like results for `C[C@@H]1COCCN1c1cc(C2([S@](C)(=N)=O)CC2)nc(-c2cc[nH]c3nccc2-3)n1` (20 µM) were, in that order, 0.00394 and -0.0855.
The like results for `O=C1CN(C(=O)Cc2ccc(Br)cc2)c2ccccc2N1` (10 µM) were, in that order, -0.08 and 0.166.
With `CCCn1c(CCl)nc2cc(S(=O)(=O)N3CCOCC3)ccc21` (10 µM), in test [1], the “XPO1 fluorescence intensity change (log2)” value amounted to 0.0146. The “BRD4 median nuclear fluorescence intensity change (log2)” value in test [2] is 0.0948.
The like results for `O=C(Nc1ccc(Oc2ccncc2)cc1)c1cccc2ccccc12` (0.1 µM) were, in that order, -0.0268 and 0.144.
The like results for `Cc1cccc(-n2ccnc2SCC(=O)Nc2sccc2C(N)=O)c1C` (1 µM) were, in that order, -0.039 and -0.0656.
The like results for `O=C(Nc1nc(-c2ccccn2)cs1)c1cnn(Cc2ccccc2)c1` (10 µM) were, in that order, -0.00774 and 0.118.
Consider `Cc1nc2c(-c3ccccc3)cnn2c(NCc2ccccn2)c1C` (10 µM), for which, in test [1], the “XPO1 fluorescence intensity change (log2)” value turned out to be 0.149. Besides, in test [2], the “BRD4 median nuclear fluorescence intensity change (log2)” value was determined as 0.0825.
The like results for `CC(O)CNCc1ccc(N(c2ccccc2)c2ccccc2)cc1` (stereo not drawn) (10 µM) were, in that order, -0.0367 and -0.0282.
For `Cn1cccc1/C=C(\C(=O)c1ccccc1)N1C=CC=CC1=C(C#N)C#N` (10 µM), the “XPO1 fluorescence intensity change (log2)” value in test [1] is -0.0833. Besides, the “BRD4 median nuclear fluorescence intensity change (log2)” value in test [2] was -0.0106.
The like results for `O=C(Nc1nc(-c2ccccn2)cs1)c1ccc(S(=O)(=O)N2CCCc3ccccc32)cc1` (10 µM) were, in that order, -0.0398 and 0.0685.
As to `CCOC(=O)c1oc2ccccc2c1CSc1nncc2ccccc12` (10 µM), the “XPO1 fluorescence intensity change (log2)” value in test [1] was -0.125. The “BRD4 median nuclear fluorescence intensity change (log2)” value in test [2] is -0.00403.
The like results for `N#Cc1ccc(NC(=O)C2(C(F)(F)F)CCN(Cc3ccccc3)C2)cc1` (stereo not drawn) (10 µM) were, in that order, -0.0326 and 0.00466.
The like results for `CCn1c(-c2ccccc2)cnc1SC(C)C(=O)Nc1cccc(C(C)=O)c1` (stereo not drawn) (10 µM) were, in that order, -0.108 and 0.0581.
On to `FC(F)(F)c1cc(Cl)ccc1-n1nnnc1CCl` (10 µM), for which the “XPO1 fluorescence intensity change (log2)” value in test [1] came out at 0.33. For the same compound, the “BRD4 median nuclear fluorescence intensity change (log2)” value in test [2] stood at 0.087.
As for `Cc1nc(-c2ccc(NC(=O)c3ccco3)cc2)cs1` (1 µM), the “XPO1 fluorescence intensity change (log2)” value in test [1] was -0.00433. Besides, in test [2], the “BRD4 median nuclear fluorescence intensity change (log2)” value is 0.0187.
In the case of `CC(c1nc2ccccc2c(=O)[nH]1)N(C)Cc1nc2ccccc2c(=O)[nH]1` (stereo not drawn) (10 µM), the “XPO1 fluorescence intensity change (log2)” value in test [1] turned out to be 0.0131. The “BRD4 median nuclear fluorescence intensity change (log2)” value in test [2] stood at 0.0596.
The like results for `COc1ccc(C2=Nn3c(nnc3-c3ccc(OC)cc3OC)SC2C)cc1` (stereo not drawn) (0.1 µM) were, in that order, -0.0248 and 0.096.
The like results for `Nc1nc(Cl)nc2c1ncn2[C@H]1C[C@H](O)[C@@H](CO)O1` [cladribine] (1 µM) were, in that order, -0.312 and 0.0281.
As to `CCOc1c(Cl)cc(C(=O)Nc2ccc(-c3nccs3)cc2)cc1OC` (1 µM), in test [1], the “XPO1 fluorescence intensity change (log2)” value was -0.0201. The “BRD4 median nuclear fluorescence intensity change (log2)” value in test [2] came to 0.0816.
The like results for `CNC(=O)Nc1ccc2c(c1)CC[C@@]21OC(=O)N(CC(=O)N(Cc2ccc(F)cc2)[C@@H](C)C(F)(F)F)C1=O` (10.01286268 µM) were, in that order, 0.147 and 0.106.
As for `CC(OC(=O)c1ccc(-c2ccc(O)cc2)cc1)C(=O)NCc1ccccc1` (stereo not drawn) (10 µM), the “XPO1 fluorescence intensity change (log2)” value in test [1] is -0.17. The “BRD4 median nuclear fluorescence intensity change (log2)” value in test [2] is -0.0067.
The like results for `COCCCN1C(=O)C(=O)c2cc(Br)ccc21` (10 µM) were, in that order, 0.0332 and 0.0653.
On to `COc1ccc2c(c1)CCCN2C(=O)c1ccccc1` (10 µM), for which the “XPO1 fluorescence intensity change (log2)” value in test [1] was -0.193. The “BRD4 median nuclear fluorescence intensity change (log2)” value in test [2] was -0.0151.
The like results for `Brc1cccc(N2CCC(CNc3ncnc4ncccc34)C2)c1` (stereo not drawn) (10 µM) were, in that order, 0.0756 and 0.0425.
For the compound `c1ccc2c(NC3CCCCCC3)nsc2c1` (10 µM), the “XPO1 fluorescence intensity change (log2)” value in test [1] worked out at 0.0714. In addition, the “BRD4 median nuclear fluorescence intensity change (log2)” value in test [2] turned out to be 0.0228.
For the compound `C/C=C/c1cc(C(=O)N2CCC(C)Sc3ccccc32)cc(OC)c1OC` (stereo not drawn) (0.1 µM), the “XPO1 fluorescence intensity change (log2)” value in test [1] was -0.0931. Also, in test [2], the “BRD4 median nuclear fluorescence intensity change (log2)” value stood at 0.00327.
The like results for `CCCCCCOc1ccc(C(=O)NN)cc1` (10 µM) were, in that order, -0.226 and 0.0296.
The like results for `CC(Sc1ncnc2sccc12)C(=O)NC(=O)NCc1ccccc1` (stereo not drawn) (10 µM) were, in that order, -0.308 and -0.121.
The like results for `COc1ccccc1C(=O)Nc1nc2ccccc2s1` (10 µM) were, in that order, 0.058 and -0.0306.
For the compound `c1ccc(Cn2cc(Nc3nc4ccccc4s3)cn2)cc1` (1 µM), the “XPO1 fluorescence intensity change (log2)” value in test [1] was -0.0216. Besides, in test [2], the “BRD4 median nuclear fluorescence intensity change (log2)” value is -0.0852.
The like results for `CCOc1ccc(-n2c(=O)c3ccc(Cl)cc3n3c(CCl)nnc23)cc1` (1 µM) were, in that order, 0.0657 and 0.0289.
For `NNC(=O)c1cc(-c2cccs2)nc2ccccc12` (10 µM), the “XPO1 fluorescence intensity change (log2)” value in test [1] is -0.168. In test [2], the “BRD4 median nuclear fluorescence intensity change (log2)” value was found to be 0.014.
The like results for `COc1ccc(-c2nc(NC(=O)CCCCl)sc2C)cc1` (10 µM) were, in that order, 0.00836 and 0.0397.
The like results for `Cc1cc(N2CCN(c3ccc(Br)cn3)CC2)nc(C(C)C)n1` (10 µM) were, in that order, 0.026 and 0.0647.
The like results for `COc1ccccc1CCC(=O)Nc1ccc(Br)cn1` (10 µM) were, in that order, 0.217 and 0.0286.
Regarding `Cc1cc(C)cc(Nc2nc(-c3ccc(Br)cc3)cs2)c1` (10 µM), in test [1], the “XPO1 fluorescence intensity change (log2)” value is -0.0286. The “BRD4 median nuclear fluorescence intensity change (log2)” value in test [2] turned out to be 0.214.
The like results for `COc1ccc(Nc2ncnc3c2c(C)c(C)n3Cc2ccco2)cc1` (10 µM) were, in that order, -0.164 and -0.0139.
In the case of `N#CC(C#N)=C1C=CC=CN1/C(=C/c1ccc(Cl)cc1)C(=O)c1ccccc1` (10 µM), the “XPO1 fluorescence intensity change (log2)” value in test [1] is 0.0862. For the same compound, in test [2], the “BRD4 median nuclear fluorescence intensity change (log2)” value turned out to be 0.0646.

The record behind these values is the supplement of paper PMC11098740.
